Assay [1] addresses Scn2a (mouse, endogenous, TurboID-HA knock-in) (mouse (endogenous in forebrain)) (UniProt B1AWN6). Put plainly: proximity labelling.
For assay [2], the target named is Scn8a (mouse, endogenous, TurboID-HA knock-in) (mouse (endogenous in forebrain)) (UniProt Q9WTU3). Put plainly: proximity labelling.

By UniProt entry, the sequences of proteins in these tests, tags left out.
UniProt B1AWN6, whole entry: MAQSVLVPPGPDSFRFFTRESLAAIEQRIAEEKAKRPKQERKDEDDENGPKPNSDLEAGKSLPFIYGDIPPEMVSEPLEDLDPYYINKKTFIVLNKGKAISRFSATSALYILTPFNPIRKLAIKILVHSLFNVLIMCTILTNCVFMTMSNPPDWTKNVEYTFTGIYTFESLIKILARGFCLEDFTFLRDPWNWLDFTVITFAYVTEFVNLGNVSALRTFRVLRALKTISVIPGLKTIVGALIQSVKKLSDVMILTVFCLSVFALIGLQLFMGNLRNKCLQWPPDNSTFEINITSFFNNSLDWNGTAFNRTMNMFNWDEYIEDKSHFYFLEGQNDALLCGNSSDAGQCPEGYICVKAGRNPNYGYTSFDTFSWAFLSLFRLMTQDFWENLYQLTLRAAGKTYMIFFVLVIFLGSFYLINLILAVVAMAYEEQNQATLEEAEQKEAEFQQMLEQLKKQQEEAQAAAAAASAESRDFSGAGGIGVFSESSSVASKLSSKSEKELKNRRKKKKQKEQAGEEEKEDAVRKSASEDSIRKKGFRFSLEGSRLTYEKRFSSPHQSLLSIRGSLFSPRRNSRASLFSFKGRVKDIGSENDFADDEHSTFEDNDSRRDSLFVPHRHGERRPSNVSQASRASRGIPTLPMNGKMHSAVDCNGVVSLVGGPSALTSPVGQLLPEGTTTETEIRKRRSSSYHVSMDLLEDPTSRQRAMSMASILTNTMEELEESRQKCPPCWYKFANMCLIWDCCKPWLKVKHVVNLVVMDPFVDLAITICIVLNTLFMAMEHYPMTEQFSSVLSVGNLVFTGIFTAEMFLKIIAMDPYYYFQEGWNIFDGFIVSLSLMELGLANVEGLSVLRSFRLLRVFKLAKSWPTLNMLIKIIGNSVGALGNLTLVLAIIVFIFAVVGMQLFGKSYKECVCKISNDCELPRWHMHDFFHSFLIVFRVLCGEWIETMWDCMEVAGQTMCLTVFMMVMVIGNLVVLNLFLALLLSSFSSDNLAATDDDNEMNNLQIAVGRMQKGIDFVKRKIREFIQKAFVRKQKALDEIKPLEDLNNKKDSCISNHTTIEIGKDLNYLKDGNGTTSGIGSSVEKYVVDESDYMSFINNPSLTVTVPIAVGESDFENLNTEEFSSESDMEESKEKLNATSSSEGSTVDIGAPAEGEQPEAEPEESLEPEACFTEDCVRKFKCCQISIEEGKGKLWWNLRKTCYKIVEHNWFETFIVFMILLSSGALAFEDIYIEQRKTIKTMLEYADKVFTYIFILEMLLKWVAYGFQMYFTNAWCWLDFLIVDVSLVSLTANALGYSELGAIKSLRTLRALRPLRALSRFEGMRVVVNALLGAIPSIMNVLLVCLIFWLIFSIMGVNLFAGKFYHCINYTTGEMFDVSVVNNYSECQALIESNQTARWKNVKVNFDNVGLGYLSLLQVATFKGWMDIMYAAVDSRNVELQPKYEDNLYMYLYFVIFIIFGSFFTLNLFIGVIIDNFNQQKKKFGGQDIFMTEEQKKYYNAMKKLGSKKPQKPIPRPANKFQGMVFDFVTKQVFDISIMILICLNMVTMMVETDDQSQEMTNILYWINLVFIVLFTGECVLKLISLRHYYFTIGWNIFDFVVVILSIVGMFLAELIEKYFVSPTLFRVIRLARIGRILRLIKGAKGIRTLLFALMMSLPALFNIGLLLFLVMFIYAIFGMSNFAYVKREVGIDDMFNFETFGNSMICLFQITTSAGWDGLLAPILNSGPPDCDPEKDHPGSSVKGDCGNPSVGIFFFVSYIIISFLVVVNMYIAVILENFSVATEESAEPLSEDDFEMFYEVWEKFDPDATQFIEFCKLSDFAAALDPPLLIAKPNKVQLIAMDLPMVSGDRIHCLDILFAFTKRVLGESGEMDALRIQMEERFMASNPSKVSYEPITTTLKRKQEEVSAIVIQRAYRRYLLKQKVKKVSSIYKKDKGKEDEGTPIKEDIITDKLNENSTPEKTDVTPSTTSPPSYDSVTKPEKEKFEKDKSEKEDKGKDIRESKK
UniProt Q9WTU3, whole entry: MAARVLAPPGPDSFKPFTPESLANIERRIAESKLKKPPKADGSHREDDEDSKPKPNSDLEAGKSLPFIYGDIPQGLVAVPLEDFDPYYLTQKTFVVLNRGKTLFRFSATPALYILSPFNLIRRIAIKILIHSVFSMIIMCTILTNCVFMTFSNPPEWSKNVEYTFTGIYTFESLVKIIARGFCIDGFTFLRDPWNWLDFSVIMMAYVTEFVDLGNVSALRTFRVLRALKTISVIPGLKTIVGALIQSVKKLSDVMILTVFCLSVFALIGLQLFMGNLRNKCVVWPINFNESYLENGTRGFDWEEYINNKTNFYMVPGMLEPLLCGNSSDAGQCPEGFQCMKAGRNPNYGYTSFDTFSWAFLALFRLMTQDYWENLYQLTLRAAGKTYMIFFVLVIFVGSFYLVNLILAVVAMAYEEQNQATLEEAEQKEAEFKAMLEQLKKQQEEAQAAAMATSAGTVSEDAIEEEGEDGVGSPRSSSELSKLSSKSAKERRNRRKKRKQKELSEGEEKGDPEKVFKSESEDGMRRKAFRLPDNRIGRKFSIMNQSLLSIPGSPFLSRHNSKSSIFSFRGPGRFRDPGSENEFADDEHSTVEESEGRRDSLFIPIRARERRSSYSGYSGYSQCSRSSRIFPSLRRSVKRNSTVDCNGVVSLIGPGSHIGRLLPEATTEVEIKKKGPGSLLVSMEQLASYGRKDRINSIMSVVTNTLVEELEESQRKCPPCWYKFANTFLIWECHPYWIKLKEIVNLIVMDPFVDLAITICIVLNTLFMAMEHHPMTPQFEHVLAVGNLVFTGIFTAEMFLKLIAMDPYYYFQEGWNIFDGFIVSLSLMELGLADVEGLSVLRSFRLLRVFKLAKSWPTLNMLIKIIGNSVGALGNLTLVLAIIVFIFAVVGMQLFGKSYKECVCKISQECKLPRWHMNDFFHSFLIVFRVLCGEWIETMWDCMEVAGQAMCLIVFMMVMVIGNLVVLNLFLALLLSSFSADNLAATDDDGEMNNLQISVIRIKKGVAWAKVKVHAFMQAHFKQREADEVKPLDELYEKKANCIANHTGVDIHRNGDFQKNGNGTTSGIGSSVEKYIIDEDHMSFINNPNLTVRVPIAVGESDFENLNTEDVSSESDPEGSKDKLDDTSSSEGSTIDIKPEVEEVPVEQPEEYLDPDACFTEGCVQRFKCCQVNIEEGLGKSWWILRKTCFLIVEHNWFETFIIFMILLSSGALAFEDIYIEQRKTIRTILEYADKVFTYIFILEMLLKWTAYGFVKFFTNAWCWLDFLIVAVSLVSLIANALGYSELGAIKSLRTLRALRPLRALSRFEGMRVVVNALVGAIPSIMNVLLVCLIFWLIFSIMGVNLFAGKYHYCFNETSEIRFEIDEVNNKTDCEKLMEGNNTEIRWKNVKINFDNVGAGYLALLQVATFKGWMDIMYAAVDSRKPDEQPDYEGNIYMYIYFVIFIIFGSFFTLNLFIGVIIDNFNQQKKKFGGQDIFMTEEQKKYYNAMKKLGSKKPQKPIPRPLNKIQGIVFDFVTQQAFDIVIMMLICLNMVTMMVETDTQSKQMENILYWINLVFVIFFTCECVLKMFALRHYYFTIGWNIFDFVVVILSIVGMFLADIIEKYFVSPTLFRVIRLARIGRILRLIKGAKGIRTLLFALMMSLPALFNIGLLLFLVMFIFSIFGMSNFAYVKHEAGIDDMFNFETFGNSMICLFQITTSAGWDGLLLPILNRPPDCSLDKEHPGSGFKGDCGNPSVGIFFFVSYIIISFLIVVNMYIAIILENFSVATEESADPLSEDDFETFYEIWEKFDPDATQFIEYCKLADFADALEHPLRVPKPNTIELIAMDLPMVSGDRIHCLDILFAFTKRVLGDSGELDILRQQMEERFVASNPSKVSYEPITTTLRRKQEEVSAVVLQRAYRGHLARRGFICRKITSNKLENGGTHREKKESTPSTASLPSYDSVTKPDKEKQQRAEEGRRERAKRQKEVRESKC

These are yes or no findings as the source states them, for the method shown. In cells and extracts the contact can be indirect. A yes stands for co-enrichment or nearness to the bait. Other partners may have been found.

For the substance Itsn1 (from UniProt Q9Z0R4 1-1714), the binding entry in assay [1] and in assay [2] was “binds” each time.
Turning to Mical3 (from UniProt Q8CJ19 1-1993), the binding entry in assay [1] and in assay [2] was “binds” each time.
For the substance Nav3 (from UniProt Q80TN7 1-2359), in assay [1], the binding entry is “binds”.
The same measure, in the same setting: then Scn1b (from UniProt P97952 19-218), with “binds”.

Source of the values: doi:10.1101/2022.10.06.511211.
